{"source": "PubChem BioAssay AID504791 (Drosophila RNAi Screening Center, 2011)", "purpose": "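Factors in Argonaute-based small RNA production and activity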 (primary screen)", "cells": "Drosophila S2-derived reporter cells", "knock-down reagent": "long dsRNA against Drosophila genes, about 150-250 ng dsRNA per well (siRNA assay); about 80-120 ng (miRNA assay)", "time to read-out": "about 5 days (siRNA assay); about 4 days (miRNA assay)", "conditions": "copper sulfate induction of reporters: 25 µM (siRNA assay); 200 mM stated (miRNA assay), 1-2 days before reading", "measured": "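Per-well ratio of Renilla over firefly light, expressed relative to that plate's average ratio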", "units": "stable assay Renilla, run 1 in luminescence; stable assay firefly, run 1 in luminescence", "active means": "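a well was a first-pass pick when its plate-scaled ratio rose above 1.5 (siRNA assay) or 1.6 (miRNA assay), or dropped below 0.6; a gene counted only if two separate dsRNAs agreed on retest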", "note": "In all, the deposit lists about 23,000 reagents; shown is an unselected part of those with a known target gene and a result. In the full data, 199 (0.86%) are marked active. 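Plate-scaled ratios behind the calls are not deposited; printed light signals are raw; many rows marked increased or decreased are still called inactive.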 A number with no mark means an inactive call. No sequences are given here. Not given: the direction of the score."}
{"Target gene": "CG13622", "amplicon": "DRSC14624", "stable assay Renilla, run 1": 7427, "stable assay firefly, run 1": 2.93e5}
{"Target gene": "Es2", "amplicon": "DRSC18663", "stable assay Renilla, run 1": 7198, "stable assay firefly, run 1": 5.28e5}
{"Target gene": "CG13460", "amplicon": "DRSC10007", "stable assay Renilla, run 1": 7746, "stable assay firefly, run 1": 3.38e5}
{"Target gene": "CG33769", "amplicon": "DRSC11716", "stable assay Renilla, run 1": 8425, "stable assay firefly, run 1": 4.67e5}
{"Target gene": "CG3529", "amplicon": "DRSC10369", "stable assay Renilla, run 1": 8284, "stable assay firefly, run 1": 4.50e5}
{"Target gene": "CG11109", "amplicon": "DRSC11633", "stable assay Renilla, run 1": 9600, "stable assay firefly, run 1": 4.90e5}
{"Target gene": "Cdc42", "amplicon": "DRSC20228", "stable siRNA reporter change": "reporter ratio lowered past the hit cutoff", "stable assay Renilla, run 1": 5188, "stable assay firefly, run 1": 6.06e5}
{"Target gene": "CG6610", "amplicon": "DRSC10674", "stable assay Renilla, run 1": 7825, "stable assay firefly, run 1": 5.29e5}
{"Target gene": "CG12769", "amplicon": "DRSC06167", "stable assay Renilla, run 1": 8575, "stable assay firefly, run 1": 5.20e5}
{"Target gene": "CG9010", "amplicon": "DRSC07320", "stable assay Renilla, run 1": 9763, "stable assay firefly, run 1": 3.88e5}
{"Target gene": "Dhfr", "amplicon": "DRSC16646", "stable assay Renilla, run 1": 6843, "stable assay firefly, run 1": 4.25e5}
{"Target gene": "Tao", "amplicon": "DRSC19573", "stable assay Renilla, run 1": 4711, "stable assay firefly, run 1": 5.31e5}
{"Target gene": "Tao", "amplicon": "DRSC19574", "stable assay Renilla, run 1": 7218, "stable assay firefly, run 1": 7.58e5}
{"Target gene": "Tao", "amplicon": "DRSC22639", "stable assay Renilla, run 1": 3680, "stable assay firefly, run 1": 4.25e5}
{"Target gene": "MRP", "amplicon": "DRSC02942", "stable assay Renilla, run 1": 60474, "stable assay firefly, run 1": 4.87e5}
{"Target gene": "Klp3A", "amplicon": "DRSC18676", "stable assay Renilla, run 1": 7574, "stable assay firefly, run 1": 4.80e5}
{"Target gene": "Klp3A", "amplicon": "DRSC21625", "stable assay Renilla, run 1": 8336, "stable assay firefly, run 1": 3.69e5}
{"Target gene": "br", "amplicon": "DRSC17691", "stable assay Renilla, run 1": 8123, "stable assay firefly, run 1": 3.70e5}
{"Target gene": "br", "amplicon": "DRSC17789", "stable assay Renilla, run 1": 4751, "stable assay firefly, run 1": 2.35e5}
{"Target gene": "br", "amplicon": "DRSC18743", "stable assay Renilla, run 1": 5048, "stable assay firefly, run 1": 3.80e5}
{"Target gene": "br", "amplicon": "DRSC18744", "stable assay Renilla, run 1": 4031, "stable assay firefly, run 1": 2.00e5}
{"Target gene": "CG8501", "amplicon": "DRSC07198", "stable assay Renilla, run 1": 7590, "stable assay firefly, run 1": 3.74e5}
{"Target gene": "Scp2", "amplicon": "DRSC13166", "stable assay Renilla, run 1": 3891, "stable assay firefly, run 1": 3.78e5}
{"Target gene": "Scp2", "amplicon": "DRSC16854", "stable assay Renilla, run 1": 7855, "stable assay firefly, run 1": 3.87e5}
{"Target gene": "gbb", "amplicon": "DRSC04687", "stable assay Renilla, run 1": 6062, "stable assay firefly, run 1": 3.22e5}
{"Target gene": "CG31088", "amplicon": "DRSC13123", "stable assay Renilla, run 1": 4323, "stable assay firefly, run 1": 4.44e5}
{"Target gene": "Hmr", "amplicon": "DRSC17740", "stable assay Renilla, run 1": 4695, "stable assay firefly, run 1": 3.57e5}
{"Target gene": "Pcd", "amplicon": "DRSC16785", "stable assay Renilla, run 1": 6847, "stable assay firefly, run 1": 3.29e5}

Reformatted: entries from further up
Target gene,amplicon,stable siRNA reporter change,"stable assay Renilla, run 1","stable assay firefly, run 1"
Scp2,DRSC13166,,3891,3.78e5
Scp2,DRSC16854,,7855,3.87e5
